Source: PMC12681849
Results are given in words; binding and its absence hold for the method and conditions named. In cells and extracts the contact can be indirect. Some results given as binding are weak or reduced against the parent protein; the word gives no strength. Where a sequence is shown, tags or fusion partners need not be part of it.

Amino acid sequences for entries named in this document (tags omitted).
UniProt P62330: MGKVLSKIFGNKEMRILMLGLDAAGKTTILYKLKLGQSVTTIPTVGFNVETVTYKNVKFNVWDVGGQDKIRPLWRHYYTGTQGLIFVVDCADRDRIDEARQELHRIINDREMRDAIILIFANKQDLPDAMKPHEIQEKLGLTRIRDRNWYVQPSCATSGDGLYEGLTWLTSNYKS

Molecular target: T1, GST-GGA3 GAT (141-327aa) (UniProt Q9NZ52)
T1 sequence: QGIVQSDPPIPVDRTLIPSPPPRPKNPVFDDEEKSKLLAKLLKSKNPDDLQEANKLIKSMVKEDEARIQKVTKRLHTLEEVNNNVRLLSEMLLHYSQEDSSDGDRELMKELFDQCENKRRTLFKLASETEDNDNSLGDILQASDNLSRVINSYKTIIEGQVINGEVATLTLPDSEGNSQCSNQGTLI
Assay: pull-down; GST-GGA3 immobilised on glutathione-sepharose beads, incubated with lysate of serum-starved, LPA-stimulated HepG2 cells at 4 °C for 1 hour; Arf6 in the pellets detected by Western blotting; only the target purified

With “ADP-ribosylation factor 6 (Arf6), GTP-bound (from UniProt P62330 1-175)” the binding was “binds”.
